Measured values from PubChem BioAssay AID493014 (National Center for Advancing Translational Sciences (NCATS), 2011).
The list shows a part of the results. These are further read-outs of the screen, such as a control signal, another cell line or another target. No call is given for them. The list favours compounds with an active or inconclusive main result. Potencies come from curve fits of mixed quality, noted in brackets.

Experiment: qHTS Assay to Find Inhibitors of Chronic Active B-Cell Receptor Signaling
Details: ABC-DLBCL IkBa-CBG/CBR reporter, luminescence ratio (green luciferase fused to IkBa over red control in TMD8 lymphoma cells), 4 h
Summary of the method: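 Concentration-response series (up to 46 uM) were applied to TMD8 dual-reporter cells for 4 h at 37C with doxycycline. Green/red ratio, after filter-overlap correction, defined %Activity; red signal alone was normalised to basal cells and zero luminescence.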

[1] = measured here: CBR red luminescence, cell number
[2] = measured here: IkBa-CBG green luminescence

Compound	AC50 [1]	AC50 [2]
O=C(O)CC(NC(=O)c1ccccc1NC(=O)c1ccccc1)C(=O)O (stereo unspecified)	7.31 µM [falling, partial curve]	
COc1ccc(Cc2nn3c(-c4cc(OC)c(OC)c(OC)c4)nnc3s2)cc1	8.2 µM [falling, partial curve, poor fit]	
O=C(CN1CCN(C(=O)c2c(F)cccc2F)CC1)Nc1ccccc1F	29.1 µM [rising, single point]	
C/C(N)=C(/C#N)C(=O)CSc1nnc(-c2ccccc2)n1C	7.08 µM [rising, partial curve, poor fit]	
O=C1NC(=O)/C(=C/C(=O)N2CCOCC2)S1	11.2 µM [falling, partial curve]	
O=C(Cn1cc(C(=O)COc2ccccc2)c2ccccc21)NCc1ccco1	20.6 µM [falling, single point]	
Cc1ccc(C2CC(=O)C=C(Nc3ccc(Cl)cc3)C2)cc1 (stereo unspecified)	0.731 µM [rising, partial curve, poor fit]	
O=C(CCNC(=O)c1ccc([N+](=O)[O-])cc1)Nc1cccc(S(=O)(=O)N2CCCCC2)c1	11.2 µM [falling, partial curve, poor fit]	
O=C(NCc1ccncc1)C(F)(F)C(F)(F)C(=O)NCc1ccncc1	1.84 µM [falling, partial curve, poor fit]	
CC(C)=CCCC(C)CN1CCC(n2nccc2NC(=O)C2CCCC2)CC1 (stereo unspecified)	0.708 µM [rising, partial curve, poor fit]	
COc1ccccc1NC(=O)Cn1ccn(-c2cccc3ccccc23)c(=O)c1=O	1.84 µM [falling, full curve, poor fit]	
COc1ccccc1NC(=O)c1csc2c1CCC(C)C2 (stereo unspecified)	3.16 µM [rising, partial curve]	
Cc1ccc(C(=O)N/N=C\c2c(C)nn(-c3ccccc3)c2Cl)cn1	7.31 µM [rising, partial curve, poor fit]	
Oc1ccc(Nc2ncnc3ccccc23)cc1	7.94 µM [falling, partial curve]	
COc1ccc(C(CCNCc2ccc(OC(C)C)cc2)c2ccccc2OC)cc1 (stereo unspecified)	15.8 µM [falling, single point]	
CCOC(=O)c1c(C)[nH]c(C)c1S(=O)(=O)N(C)CC(=O)NCc1ccc(Cl)cc1	5.01 µM [rising, full curve, poor fit]	
CCN(CCCNC(=O)CC(C(=O)N1CCc2ccccc21)n1ccnc1)c1ccccc1 (stereo unspecified)	35.5 µM [falling, single point]	
O=C(O)c1ccc2nc(-c3cc4cc(Cl)ccc4oc3=O)[nH]c2c1	0.1 µM [falling, full curve]	
COc1ccc(/C=C/c2ccncc2)cc1OC	0.259 µM [rising, full curve, poor fit]	23.1 µM [falling, partial curve]
CC(OC(=O)Cn1ccccc1=O)C(=O)Nc1cc(Cl)cc(Cl)c1 (stereo unspecified)	9.2 µM [rising, partial curve]	

Two entries from above in a different format:

| Compound | AC50 [1] | AC50 [2] |
| --- | --- | --- |
| Cc1ccc(C2CC(=O)C=C(Nc3ccc(Cl)cc3)C2)cc1 (stereo unspecified) | 0.731 µM [rising, partial curve, poor fit] |  |
| Cc1ccc(C(=O)N/N=C\c2c(C)nn(-c3ccccc3)c2Cl)cn1 | 7.31 µM [rising, partial curve, poor fit] |  |

(listing goes on)

Compound	AC50 [1]	AC50 [2]
COc1ccccc1/C=C/C(=O)OCC(=O)c1cc(C)n(C)c1C	25.9 µM [falling, partial curve, poor fit]	
COCCNC(=O)CSc1nc(-c2ccccc2)cs1	25.1 µM [rising, single point]	
Cc1ccc2c(c1)C1(C(=O)N2)N2CCCC2C(C(=O)c2ccc3ccccc3c2)C12C(=O)Nc1ccccc12 (stereo unspecified)	35.5 µM [falling, partial curve, poor fit]	20 µM [rising, partial curve, poor fit]
COc1ccc(S(=O)(=O)N2CCc3ccccc3C2)cc1	6.31 µM [rising, full curve, poor fit]	
CCOc1ccc(NC(=O)c2nn(C)cc2Br)cc1	8.91 µM [falling, partial curve]	
Cc1nn(-c2ccccc2)c(C)c1/C=C/C(=O)OCC(=O)Nc1ncc(C(F)(F)F)cc1Cl	9.2 µM [rising, partial curve, poor fit]	
Cn1c(=O)c2c(nc(NCc3ccccc3)n2Cc2ccc(F)cc2)n(C)c1=O	1.64 µM [falling, full curve, poor fit]	2.91 µM [rising, full curve]
CC(=O)Nc1cccc(-c2cc(C)c3cc4c(cc3n2)OCO4)c1	6.31 µM [rising, partial curve, poor fit]	
COc1cccc(/C=C2\SC(=S)N(CCCC(=O)N3CCCC3)C2=O)c1	7.94 µM [falling, partial curve, poor fit]	
CCCNS(=O)(=O)c1cc(CN2C(=O)c3cccnc3C2=O)ccc1OC	5.01 µM [falling, single point]	
CCN1C(=NCC(C)C)N[C@@H](c2cccc(C(F)(F)F)c2)C(C(=O)OC)=C1C	7.94 µM [falling, partial curve]	
CCC1(CC)NC(=O)N(CC(=O)OCC(=O)Nc2sccc2C#N)C1=O	35.5 µM [rising, single point]	
CC(c1nnc(SCC(=O)N2CC(=O)Nc3ccccc32)n1Cc1ccccc1)N(C)C (stereo unspecified)	6.51 µM [rising, single point]	
O=C(NNC(=S)Nc1cccc(C(F)(F)F)c1)c1ccc(Cl)cc1Cl	29.1 µM [falling, single point]	
COc1cc(/C=N/NC(=S)NCCN2CCOCC2)cc(OC)c1OC	29.1 µM [rising, single point]	8.2 µM [falling, partial curve, poor fit]
O=C(NC1CCCC1)C1=COCCO1	2.91 µM [rising, partial curve, poor fit]	
COc1ccc(NC(=O)c2cccn(CC=C(C)C)c2=O)cc1	20 µM [falling, single point]	
Cn1c(SC2=CS(=O)(=O)c3ccccc32)nc2ccccc21	22.4 µM [falling, partial curve, poor fit]	
Cc1nc2c(C(F)(F)F)cccc2c2c1CCS2	17.8 µM [rising, partial curve, poor fit]	10 µM [falling, partial curve]
COc1cc(/C=N/Nc2nc(Nc3ccccc3)nc(N3CCCCC3)n2)ccc1OCC(=O)O	25.1 µM [falling, single point]	

Compound	AC50 [1]	AC50 [2]
Clc1ccc(CNc2nc(CN3CCOCC3)nc3scc(-c4ccccc4)c23)cc1	29.1 µM [falling, single point]	
C=CCOC(=O)C1=C(C)NC(SCC(N)=O)=C(C#N)C1c1ccc(C)cc1 (stereo unspecified)	0.1 µM [rising, full curve, poor fit]	
Cc1ccc(C(=O)N2CCN(c3ccccc3F)CC2)cc1S(=O)(=O)N1CCOCC1	0.316 µM [falling, full curve, poor fit]	
CN1CC(=O)N2C(c3ccc(Cl)cc3)c3[nH]c4ccccc4c3C[C@H]2C1=O (stereo partly specified)	22.4 µM [falling, single point]	
O=C(O)c1cc(N/N=C/c2c(O)ccc3ccccc23)ccc1Cl	35.5 µM [falling, single point]	
O=C(NCCc1ccccc1)c1cc(-c2ccco2)on1	6.51 µM [falling, full curve]	
CN(C)S(=O)(=O)c1cccc(NC(=O)CSc2nc3c(cc2C#N)C(=O)CC(C)(C)C3)c1	18.4 µM [falling, partial curve]	
CSc1ccccc1NC(=O)CN(C)CC(=O)Nc1ccc(N2CCOCC2)cc1	15.8 µM [rising, partial curve, poor fit]	
O=C(/C(=C/c1ccccc1)n1cncn1)c1ccc(Cl)cc1Cl	18.4 µM [falling, single point]	
Cc1nnc(SCC(=O)Nc2ccc(O)cc2)c2ccccc12	11.2 µM [falling, partial curve]	
Cc1cc(C(=O)CCC(=O)Nc2ncccc2C)c(C)s1	29.1 µM [falling, partial curve, poor fit]	
Cn1c(SCC(=O)Nc2nc3ccccc3s2)ncc(C(=O)Nc2ccccc2)c1=O	22.4 µM [falling, partial curve, poor fit]	
CC1CCCCN1S(=O)(=O)c1ccc(C(=O)Nc2sccc2C(N)=O)cc1 (stereo unspecified)	18.4 µM [falling, single point]	
COC(=O)Nc1nc(-c2cc(Cl)ccc2Cl)cs1	5.62 µM [rising, partial curve, poor fit]	
O=C(Nc1ccc2c(c1)OCCO2)C1CCCN(S(=O)(=O)Cc2ccccc2)C1 (stereo unspecified)	25.9 µM [falling, partial curve, poor fit]	
CCc1nnc(NC(=O)c2ccc(S(=O)(=O)N3CCCC3)cc2)s1	14.1 µM [falling, partial curve, poor fit]	
Cc1nn(-c2ccccc2)c(Cl)c1CN(C(=O)CCl)c1cccc2ccccc12	23.1 µM [falling, partial curve, poor fit]	11.6 µM [rising, partial curve, poor fit]
CC1CCCCN1C(=O)COC(=O)c1n[nH]c2ccccc12 (stereo unspecified)	18.4 µM [falling, single point]	
COc1ccccc1-c1nnc(SCC(=O)NCc2c(C)c(Cl)cc(C(C)C)c2O)o1	20.6 µM [falling, single point]	
NS(=O)(=O)c1cccc(NC(=O)COC(=O)/C(=C/c2cccs2)c2cccs2)c1	25.9 µM [falling, partial curve]	
